Among all 410,000 compounds or so, about 18,000 (4.4%) were called active. This list was built around the results that the source calls inconclusive (neither active nor inactive); the mix of calls is not that of the screen. Cut-off read from the data, not from the text of the source: active = activity change below about -60%; inconclusive = no clear call, values can overlap the other calls; inactive = above about -39%.
Test: qHTS Assay for inhibitors of the human cytomegalovirus (HCMV)
Conditions: HFF cells, HCMV-luciferase reporter, 72 h; at 57.5 µM; active compounds read low
In short: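 Human foreskin fibroblasts infected with luciferase-reporter HCMV at MOI 1 PFU/cell, compounds at two doses. Luciferase measured 72 h post infection; normalized to buffer-only basal and Salinomycin (10uM) controls.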
% is set by controls: 0 for no effect and ±100 for the full control effect.

Row | SMILES | activity change, negative = inhibition
1 | CCOC(=O)N1C(=O)[C@](c2ccc(Cl)cc2)(C(C)C)N1C(=O)OCC | active: -90%
2 | COc1cc2c(cc1NC(=O)c1ccccc1C)n(C)c(=O)n2C | inactive: 8.14%
3 | CCSc1nnc(NC(=O)c2cc(=O)c3cc(C)ccc3o2)s1 | inactive: 20.8%
4 | CC(C)(C)c1ccc(-c2nnc(SC3CCOC3=O)n2Cc2ccccc2)cc1 (stereo not given) | inconclusive: -47.9%
5 | Cc1nc2cc(-c3cccc(F)c3)nn2c(C)c1CCC(=O)NC(C)c1ccccc1 (stereo not given) | inconclusive: -53.4%
6 | Cc1ccccc1OCC(O)CN1CCN(CCN2C(=O)c3cccc4cccc(c34)C2=O)CC1 (stereo not given) | inconclusive: -57.3%
7 | O=C(COc1ccc(Cl)cc1)N(Cc1ccccc1)c1nc(-c2ccccc2)cs1 | inactive: 15.1%
8 | Cc1cc(Oc2ccc(Cl)cc2)nc(-c2ccccn2)n1 | inconclusive: -47.2%
9 | CCOC(=O)Cn1cc(/C=C/[N+](=O)[O-])c2ccccc21 | active: -74.3%
10 | CCCCc1ccc(NC(=O)CSc2nc(=O)[nH]c3c2CCCC3)cc1 | inconclusive: -55.6%
11 | CCC(NC(=O)c1cc(COc2cc(C)c(Cl)c(C)c2)on1)c1ccncc1 (stereo not given) | inconclusive: -48.1%
12 | Cc1ccc(OCCCN2CCOCC2)c([N+](=O)[O-])c1 | inactive: 190%
13 | CCc1nnc(NC(=O)CSc2nc3cccnc3n2C2CCCCC2)s1 | inconclusive: -45.4%
14 | O=C(O)[C@@H]1C[C@@H](O)CN1 | inactive: 17.3%
15 | COc1cccc(C2C(C(=O)c3cc4ccccc4o3)=C(O)C(=O)N2CCN2CCOCC2)c1 (stereo not given) | inconclusive: -45.6%
16 | COc1ccc(-c2nnc(SC(C)C(=O)O)o2)cc1 (stereo not given) | inactive: 10.2%
17 | C[C@H]1[C@H](C)CC[C@]2(C(=O)O)CC[C@]3(C)C(=CC[C@@H]4[C@@]5(C)CC[C@H](O)C(C)(C)[C@@H]5CC[C@]43C)[C@H]12 | inactive: -13.2%
18 | O=C(Nc1ccccc1Cl)[C@H](CSCc1ccccc1)N1Cc2ccccc2C1=O | inconclusive: -44%
19 | Nc1c(C(=O)NCc2ccco2)c2nc3ccccc3nc2n1CCc1ccccc1 | active: -69.3%
20 | CC(C)c1ccc(CNC(=O)c2ccc(N3CCCC3)c(NC(=O)NCc3ccccc3)c2)cc1 | inconclusive: -40.2%
21 | Cc1ccc(C(C)NC(=O)Cc2cccs2)cc1C (stereo not given) | inconclusive: -50.3%
22 | Cc1ccc(O)c(-c2cc3ccccc3[nH]2)c1 | inconclusive: -46.3%
23 | CCn1c(SCC(=O)Nc2ccc3c(c2)OCO3)nc2c(c1=O)SC(C)C2 (stereo not given) | inconclusive: -48.2%

Row | SMILES | activity change, negative = inhibition
24 | N#C/C(=C/c1ccc(N2CCCCCC2)o1)c1cccc(F)c1 | active: -80.8%
25 | Cc1ccc2oc(=O)n(CC(=O)OC(C)C)c2c1 | inactive: 2.91%
26 | COc1ccc(NC(=S)N2CCC(c3ccccc3)C2)cc1 (stereo not given) | inactive: 5.09%
27 | Cc1ccc(-n2c(SCC(=O)NCCN3C(=O)CSC3=O)nnc2-c2ccccc2F)cc1 | inconclusive: -44.4%
28 | Cc1ccc(S(=O)(=O)CCC(=O)OCC(=O)NC(=O)c2ccccc2)cc1 | inactive: -14.6%
29 | O=C(Nc1cccc2c1C(=O)NC2=O)c1cccnc1Cl | inconclusive: -57.7%
30 | CC(N)Cc1ccc(O)cc1 (stereo not given) | inconclusive: -56.6%
31 | Cc1nc(SCC(=O)Nc2ccc(C)c(Cl)c2)cc(-c2ccccc2)n1 | inconclusive: -48.5%
32 | COC(=O)c1cn(C(=O)c2ccccc2)c2ccccc12 | inconclusive: -42%
33 | Cc1occc1C(=O)N/N=C/C=C/c1ccccc1[N+](=O)[O-] | inactive: -1.3%
34 | COc1ccc(C)c2sc(NC(=O)CCS(=O)(=O)c3ccccc3)nc12 | active: -89.2%
35 | O=C(COC(=O)Cc1ccc(Br)cc1)Nc1ccc(Cl)cn1 | inactive: -8.1%
36 | COc1cccc(N2C(=O)/C(=C\c3cccs3)NC2=S)c1 | inconclusive: -57.6%
37 | COc1ccc(OCCn2cc(C=O)c3ccccc32)cc1 | inactive: 11.1%
38 | O=C(NCCc1ccc(Cl)cc1)C1CCN(S(=O)(=O)c2ccc(-n3cnnn3)cc2)CC1 | inconclusive: -49.9%
39 | COc1ccc(-c2ccc(NS(=O)(=O)c3cc(C)c(C)cc3C)cc2)nn1 | active: -76.9%
40 | CC/C(=N/Nc1cccc(Cl)c1)c1cnnc(SC)n1 | inactive: -15.1%
41 | O=C(O)c1ccc2nc(-c3ccccc3)sc2c1 | inconclusive: -53.2%
42 | Cc1sc2ncnc(N3CCCCC3)c2c1C | inconclusive: -48.4%
43 | N#Cc1c(C(F)(F)F)cc(-c2cccs2)nc1SCc1ccc(Cl)nc1 | inconclusive: -53%
44 | CC1CCN(C(=O)CCc2ccc(Oc3cc([N+](=O)[O-])cc([N+](=O)[O-])c3)cc2)CC1 | inconclusive: -48.3%
45 | Cc1ccc(CN2CC(C(=O)N3CCN(S(=O)(=O)c4ccccc4)CC3)CC2=O)cc1 (stereo not given) | inconclusive: -50.5%
46 | COc1ncccc1C(=O)N1CCCC(C(=O)c2cccc(OC(C)C)c2)C1 (stereo not given) | inconclusive: -48.7%

Row | SMILES | activity change, negative = inhibition
47 | COc1ccc(NC(=S)Nc2ncccc2C)c(OC)c1 | active: -63.1%
48 | CC(C)OC(=O)CC1=NC(=O)CS1 | inactive: -3.31%
49 | COCCCNC(=S)NNC(=O)C1CC1c1ccc(C(C)(C)C)cc1 (stereo not given) | inactive: -20.6%
50 | O=S(=O)(c1ccc(Cl)cc1)c1nc(-c2cccs2)oc1SCc1ccccc1F | inactive: -22%
51 | CC(C)C(C)(C#N)NC(=O)CSc1nc2scc(-c3ccc(F)cc3)c2c(=O)n1Cc1ccccc1 (stereo not given) | inactive: -27.3%
52 | CCNS(=O)(=O)c1ccc2c(c1)NCC2 | inactive: 24.9%
53 | O=C(CCc1ccc(S(=O)(=O)NC2CCCCC2)cc1)NCc1ccccn1 | inactive: 11.3%
54 | O=S(=O)(Nc1ncccn1)c1ccc(NC(=S)N2CCN(Cc3ccc(F)cc3Cl)CC2)cc1 | inactive: -34.7%
55 | O=C(c1cc(N2C(=O)C3C4CCC(C4)C3C2=O)ccc1Cl)N1CCN(c2ccccc2)CC1 (stereo not given) | inconclusive: -47.8%
56 | CCN(CC)C(=O)CC(c1ccc(F)cc1)c1ccc(OC)cc1 (stereo not given) | active: -66.8%
57 | O=C(Nc1cccnc1)c1cc(-c2ccc(Cl)cc2Cl)on1 | inactive: -6.92%
58 | Cc1nnc(SC(=O)N2c3ccccc3Sc3ccccc32)s1 | inconclusive: -51.1%
59 | Cc1cc(SCC#N)n2nc(C)c(-c3ccccc3)c2n1 | active: -72.8%
60 | CC(C)Cc1cc(C(=O)N2CCC(N3CCC(C(=O)NC4CC4)CC3)CC2)n[nH]1 | inconclusive: -57.9%
61 | CS(=O)(=O)N1CCN(Cc2ccc(C(F)(F)F)cc2)CC1 | inactive: 0.766%
62 | CC(CNC(=O)CN(C)CC(=O)Nc1ccccc1Br)c1ccccc1 (stereo not given) | inconclusive: -40.8%
63 | COc1ccc(CCNC(=O)c2cc(Nc3ccccc3)nc3ccccc23)cc1OC | inactive: 30.7%
64 | CC(=O)Nc1cc(-c2cccc(C(=O)N(C)C)c2)cn2c(-c3ccc(F)cc3)cnc12 | inconclusive: -52.8%
65 | O=C(O)CC1=C(Nc2ccccc2)C(=O)N(c2ccccc2)C1c1ccc(F)cc1 (stereo not given) | inactive: -21.5%
66 | CON/C=N/C(=S)Nc1ncc(C(F)(F)F)cc1Cl | inconclusive: -49.8%
67 | CCCN(CCC)CCc1c[nH]c2ccccc12 | inconclusive: -56%
68 | O=S(=O)(NCCc1csc(-c2cccc(F)c2)n1)c1cc(F)ccc1F | active: -106%
69 | Cc1ccccc1Cn1c(SCc2ccc(C(=O)N3CCCCC3)cc2)nc2ccncc21 | inconclusive: -44.4%

Row | SMILES | activity change, negative = inhibition
70 | c1ccc(OCc2nnc(-c3ccccc3)o2)cc1 | inconclusive: -52.9%
71 | COc1ccc2oc(=O)c(-c3cn4ccc(C)cc4n3)cc2c1 | inconclusive: -54.2%
72 | COc1ccccc1NC(=O)C(Sc1ccccc1)c1ccccc1 (stereo not given) | inactive: 33.5%
73 | CC(C)CC(C(=O)NC(C)(C)C)N(Cc1ccccc1Cl)C(=O)c1snc(C(N)=O)c1N (stereo not given) | inconclusive: -48.5%
74 | CCc1nnc(NC(=O)c2oc3ccccc3c2COC(C)C)s1 | inconclusive: -49.1%
75 | OCCNc1nc(Nc2cccc(O)c2)nc2ccccc12 | inconclusive: -49.8%
76 | CCOC(=O)CSc1nc2ccccc2c(=O)n1CC | inactive: -10.2%
77 | CC1CC(C)CN(CCOc2cccc(Cl)c2Cl)C1 (stereo not given) | inconclusive: -56.2%
78 | COc1ccc(CN2CCN(Cc3ccc(Br)cc3)CC2)c(OC)c1OC | active: -68%
79 | Cc1nnc(C)c2c(C)n(C(C)c3ccccc3)c(C)c12 (stereo not given) | inconclusive: -40.2%
80 | COc1ccc(C(=O)Nc2ccccc2C(=O)N2CCN(c3ccccc3)CC2)cc1 | inconclusive: -50.5%
81 | C/C(=N\Nc1nc(N2CCCCCC2)nc(N2CCCCCC2)n1)c1ccccc1 | active: -65.6%
82 | O=C(NC1CCCCC1)c1cc(N2C(=O)CCC2=O)ccc1Cl | inconclusive: -40.2%
83 | Cc1cccc(NC(=O)CSCC(=O)N(C)CC(=O)Nc2cccc(F)c2)c1 | inconclusive: -45.6%
84 | O=C(Cn1c(=O)oc2ccccc21)N(Cc1ccccc1)C1CCS(=O)(=O)C1 (stereo not given) | active: -101%
85 | CC(C)c1ccc(NC(=O)CN2CCN(c3ccccn3)CC2)cc1 | inactive: -35.1%
86 | O=C(Nc1ccc(Cl)cc1)C1CCCN(c2cnccn2)C1 (stereo not given) | inactive: -0.785%
87 | O=C(Nc1ccc(Cl)cc1)Nc1ccc(S(=O)(=O)Nc2ncccn2)cc1 | inconclusive: -45.9%
88 | CCCCNC(=O)CCc1c(C)nc2nc(-c3cc(OC)cc(OC)c3)nn2c1C | active: -95.2%
89 | CCOC(=O)C1CCCN(C(=O)Cn2ncc3c(C)n(Cc4ccc(Cl)cc4)c(C)c3c2=O)C1 (stereo not given) | inactive: -8.6%
90 | c1ccc(CN2CCC(Nc3nc(-c4cccs4)nc4ccccc34)CC2)cc1 | inconclusive: -59.4%

Records 75 through 81 of the list above:
Row | SMILES | activity change, negative = inhibition
75 | OCCNc1nc(Nc2cccc(O)c2)nc2ccccc12 | inconclusive: -49.8%
76 | CCOC(=O)CSc1nc2ccccc2c(=O)n1CC | inactive: -10.2%
77 | CC1CC(C)CN(CCOc2cccc(Cl)c2Cl)C1 (stereo not given) | inconclusive: -56.2%
78 | COc1ccc(CN2CCN(Cc3ccc(Br)cc3)CC2)c(OC)c1OC | active: -68%
79 | Cc1nnc(C)c2c(C)n(C(C)c3ccccc3)c(C)c12 (stereo not given) | inconclusive: -40.2%
80 | COc1ccc(C(=O)Nc2ccccc2C(=O)N2CCN(c3ccccc3)CC2)cc1 | inconclusive: -50.5%
81 | C/C(=N\Nc1nc(N2CCCCCC2)nc(N2CCCCCC2)n1)c1ccccc1 | active: -65.6%

Source: PubChem BioAssay AID1259415 (National Center for Advancing Translational Sciences (NCATS), 2018)
